According to patent US20240408169A1 (priority 2023, published 2024):

Experiment: peptide synthesis
Settings: coupling step, TFA salt (deprotected amines)

Substance | step yield
(2S,4R)—N—((S)-2-(((3S,6S,9S)-3-((5-chloro-2-methylpyridin-3-yl)methyl)-6-isobutyl-4-methyl-2,5,8-trioxo-1,4,7-triazacyclohexadecan-9-yl)(methyl)amino)-1-cyclopropyl-2-oxoethyl)-1-(3,3-difluoro-1-(trifluoromethyl)cyclobutane-1-carbonyl)-4-fluo | 28%
N—((S)-1-(((S)-1-(((3S,6S,9S)-3-(2,5-dichlorobenzyl)-6-isobutyl-4-methyl-2,5,8-trioxo-1,4,7-triazacyclohexadec-11-en-9-yl)amino)-1-oxopropan-2-yl)amino)-1-oxobutan-2-yl)-1-(trifluoromethyl)cyclopropane-1-carboxamide | 14%
Tert-butyl ((S)-2-(((3S,6S,9S,Z)-3-((5-chloro-2-cyclopropoxypyridin-3-yl)methyl)-6-isobutyl-1,4-dimethyl-2,5,8-trioxo-1,4,7-triazacyclohexadec-11-en-9-yl)(methyl)amino)-1-cyclopropyl-2-oxoethyl)carbamate | 25%
Tert-butyl((1S,4S,7S,10S)-4-allyl-10-(2-bromo-5-fluorobenzyl)-1-cyclopropyl-7-isobutyl-3,9,12-trimethyl-2,5,8,11-tetraoxo-3,6,9,12-tetraazaoctadec-17-en-1-yl)carbamate | 70% yield

Same assay, conditions: late stage modification step, TFA salt

Substance | step yield [%]
(S)-2-amino-N-((3S,6S,9S)-3-(5-chloro-2-(1-(methylsulfonyl)-1H-pyrazol-4-yl)benzyl)-6-isobutyl-4-methyl-2,5,8-trioxo-1,4,7-triazacyclohexadec-12-en-9-yl)-2-cyclopropyl-N-methylacetamide | 100.0
(S)-2-amino-N-((3S,6S,9S)-3-(5-chloro-2-(5-methyl-1,3,4-oxadiazol-2-yl)benzyl)-6-isobutyl-4-methyl-2,5,8-trioxo-1,4,7-triazacyclohexadec-11-en-9-yl)-2-cyclopropyl-N-methylacetamide | 100

Same assay, conditions: late stage modification step, TFA salt (deprotected amines)

Substance | step yield
(2S,4R)—N—((S)-2-(((3S,6S,9S)-3-((5-chloro-1-methyl-1H-indol-7-yl)methyl)-6-isobutyl-1,4-dimethyl-2,5,8-trioxo-1,4,7-triazacyclohexadecan-9-yl)(methyl)amino)-1-cyclopropyl-2-oxoethyl)-1-(3,3-difluoro-1-(trifluoromethyl)cyclobutane-1-carbonyl)-4-fluoropyrrolidine-2-carboxamide | 9.21%
((S)-2-(((3S,6S,9S)-3-(2-bromo-5-chlorobenzyl)-6-isobutyl-4-methyl-2,5,8-trioxo-1,4,7-triazacyclohexadecan-9-yl)(methyl)amino)-1-cyclopropyl-2-oxoethyl)carbamate | 98%
Ethyl 4-(2-(((3S,6S,9S)-9-((S)-2-((tert-butoxycarbonyl)amino)-2-cyclopropyl-N-methylacetamido)-6-isobutyl-4-methyl-2,5,8-trioxo-1,4,7-triazacyclohexadec-11-en-3-yl)methyl)-4-chlorophenyl)-3,6-dihydropyridine-1 (2H)-carboxylat | 51%
Tert-butyl ((S)-2-(((3S,6S,9S)-3-(2-(1-acetyl-1,2,3,6-tetrahydropyridin-4-yl)-5-fluorobenzyl)-6-isobutyl-1,4-dimethyl-2,5,8-trioxo-1,4,7-triazacyclohexadec-11-en-9-yl)(methyl)amino)-1-cyclopropyl-2-oxoethyl)carbamate | 63%
Tert-butyl ((S)-2-(((3S,6S,9S)-3-(2-(1-acetyl-1,2,3,6-tetrahydropyridin-4-yl)-5-fluorobenzyl)-6-isobutyl-1,4-dimethyl-2,5,8-trioxo-1,4,7-triazacyclohexadecan-9-yl)(methyl)amino)-1-cyclopropyl-2-oxoethyl)carbamate | 85%
tert-butyl ((S)-2-(((3S,6S,9S)-3-(2-(1-acetyl-1,2,3,6-tetrahydropyridin-4-yl)-5-chlorobenzyl)-6-isobutyl-1,4-dimethyl-2,5,8-trioxo-1,4,7-triazacyclohexadecan-9-yl)(methyl)amino)-1-cyclopropyl-2-oxoethyl)carbamate | 86.7%
tert-butyl ((S)-2-(((3S,6S,9S)-3-(5-chloro-2-(1-(methylsulfonyl)-1H-pyrazol-4-yl)benzyl)-6-isobutyl-4-methyl-2,5,8-trioxo-1,4,7-triazacyclohexadec-12-en-9-yl)(methyl)amino)-1-cyclopropyl-2-oxoethyl)carbamate | 79%
tert-butyl ((S)-2-(((3S,6S,9S)-3-(5-chloro-2-(4,4,5,5-tetramethyl-1,3,2-dioxaborolan-2-yl)benzyl)-6-isobutyl-1,4-dimethyl-2,5,8-trioxo-1,4,7-triazacyclohexadecan-9-yl)(methyl)amino)-1-cyclopropyl-2-oxoethyl)carbamate | 1.51% yield
tert-butyl ((S)-2-(((3S,6S,9S)-3-(5-chloro-2-(5-morpholinopyridin-2-yl)benzyl)-6-isobutyl-1,4-dimethyl-2,5,8-trioxo-1,4,7-triazacyclohexadecan-9-yl)(methyl)amino)-1-cyclopropyl-2-oxoethyl)carbamate | 46%
tert-butyl ((S)-2-(((3S,6S,9S)-3-((5-chloro-2-methylpyridin-3-yl)methyl)-6-isobutyl-4-methyl-2,5,8-trioxo-1,4,7-triazacyclohexadecan-9-yl)(methyl)amino)-1-cyclopropyl-2-oxoethyl)carbamate | 95%
